From patent publication US4868320A, “1,7,9,15-Tetraoxa-4,12-diaza-8-silaspiro-(7.7)-pentadecanes, a process for their preparaton and their use” (Bayer Akteingesellschaft, priority 1987, dated 1989) come the findings set out here.

Data set [1] in a line: Determination of reactivity: hardening in K 36 (DIN 16 945). The conditions noted are these: 2% benzoyl peroxide paste (50%), 2% accelerator in resin.
Data set [2] in a line: Determination of reactivity: hardening in Roskydal K 14 M (DIN 16 945). The settings on record: A 3% (0.10% N), 1 2% (0.13% N) in resin.

`Cc1ccc(N2CCO[Si]3(OCC2)OCCN(c2ccc(C)cc2)CCO3)cc1` [Example 1]: the Tmax in data set [1] was found to be 102 °C; in data set [2], 127 °C.
On to `Cc1ccc(N2CCO[Si]3(OCC2)OCCN(c2ccc(C)c(Cl)c2)CCO3)cc1Cl` [Example 2], for which the Tmax in data set [1] was determined as 78 °C.
For `Cc1ccc(N2CC(C)O[Si]3(OC(C)C2)OC(C)CN(c2ccc(C)cc2)CC(C)O3)cc1` (stereo not shown) [Example 3], the Tmax in data set [1] is 95 °C.
